Test results from patent US20090297503A1 (Chugai, published 2009).
These are yes or no findings as the source states them, for the method shown. Some entries that bind do so weakly or less than the wild type.

By UniProt entry, the sequences of proteins in these tests, tags left out. Where a name states a change or a piece, a line headed by the entry shows the natural chain unless it says otherwise.
UniProt P00451: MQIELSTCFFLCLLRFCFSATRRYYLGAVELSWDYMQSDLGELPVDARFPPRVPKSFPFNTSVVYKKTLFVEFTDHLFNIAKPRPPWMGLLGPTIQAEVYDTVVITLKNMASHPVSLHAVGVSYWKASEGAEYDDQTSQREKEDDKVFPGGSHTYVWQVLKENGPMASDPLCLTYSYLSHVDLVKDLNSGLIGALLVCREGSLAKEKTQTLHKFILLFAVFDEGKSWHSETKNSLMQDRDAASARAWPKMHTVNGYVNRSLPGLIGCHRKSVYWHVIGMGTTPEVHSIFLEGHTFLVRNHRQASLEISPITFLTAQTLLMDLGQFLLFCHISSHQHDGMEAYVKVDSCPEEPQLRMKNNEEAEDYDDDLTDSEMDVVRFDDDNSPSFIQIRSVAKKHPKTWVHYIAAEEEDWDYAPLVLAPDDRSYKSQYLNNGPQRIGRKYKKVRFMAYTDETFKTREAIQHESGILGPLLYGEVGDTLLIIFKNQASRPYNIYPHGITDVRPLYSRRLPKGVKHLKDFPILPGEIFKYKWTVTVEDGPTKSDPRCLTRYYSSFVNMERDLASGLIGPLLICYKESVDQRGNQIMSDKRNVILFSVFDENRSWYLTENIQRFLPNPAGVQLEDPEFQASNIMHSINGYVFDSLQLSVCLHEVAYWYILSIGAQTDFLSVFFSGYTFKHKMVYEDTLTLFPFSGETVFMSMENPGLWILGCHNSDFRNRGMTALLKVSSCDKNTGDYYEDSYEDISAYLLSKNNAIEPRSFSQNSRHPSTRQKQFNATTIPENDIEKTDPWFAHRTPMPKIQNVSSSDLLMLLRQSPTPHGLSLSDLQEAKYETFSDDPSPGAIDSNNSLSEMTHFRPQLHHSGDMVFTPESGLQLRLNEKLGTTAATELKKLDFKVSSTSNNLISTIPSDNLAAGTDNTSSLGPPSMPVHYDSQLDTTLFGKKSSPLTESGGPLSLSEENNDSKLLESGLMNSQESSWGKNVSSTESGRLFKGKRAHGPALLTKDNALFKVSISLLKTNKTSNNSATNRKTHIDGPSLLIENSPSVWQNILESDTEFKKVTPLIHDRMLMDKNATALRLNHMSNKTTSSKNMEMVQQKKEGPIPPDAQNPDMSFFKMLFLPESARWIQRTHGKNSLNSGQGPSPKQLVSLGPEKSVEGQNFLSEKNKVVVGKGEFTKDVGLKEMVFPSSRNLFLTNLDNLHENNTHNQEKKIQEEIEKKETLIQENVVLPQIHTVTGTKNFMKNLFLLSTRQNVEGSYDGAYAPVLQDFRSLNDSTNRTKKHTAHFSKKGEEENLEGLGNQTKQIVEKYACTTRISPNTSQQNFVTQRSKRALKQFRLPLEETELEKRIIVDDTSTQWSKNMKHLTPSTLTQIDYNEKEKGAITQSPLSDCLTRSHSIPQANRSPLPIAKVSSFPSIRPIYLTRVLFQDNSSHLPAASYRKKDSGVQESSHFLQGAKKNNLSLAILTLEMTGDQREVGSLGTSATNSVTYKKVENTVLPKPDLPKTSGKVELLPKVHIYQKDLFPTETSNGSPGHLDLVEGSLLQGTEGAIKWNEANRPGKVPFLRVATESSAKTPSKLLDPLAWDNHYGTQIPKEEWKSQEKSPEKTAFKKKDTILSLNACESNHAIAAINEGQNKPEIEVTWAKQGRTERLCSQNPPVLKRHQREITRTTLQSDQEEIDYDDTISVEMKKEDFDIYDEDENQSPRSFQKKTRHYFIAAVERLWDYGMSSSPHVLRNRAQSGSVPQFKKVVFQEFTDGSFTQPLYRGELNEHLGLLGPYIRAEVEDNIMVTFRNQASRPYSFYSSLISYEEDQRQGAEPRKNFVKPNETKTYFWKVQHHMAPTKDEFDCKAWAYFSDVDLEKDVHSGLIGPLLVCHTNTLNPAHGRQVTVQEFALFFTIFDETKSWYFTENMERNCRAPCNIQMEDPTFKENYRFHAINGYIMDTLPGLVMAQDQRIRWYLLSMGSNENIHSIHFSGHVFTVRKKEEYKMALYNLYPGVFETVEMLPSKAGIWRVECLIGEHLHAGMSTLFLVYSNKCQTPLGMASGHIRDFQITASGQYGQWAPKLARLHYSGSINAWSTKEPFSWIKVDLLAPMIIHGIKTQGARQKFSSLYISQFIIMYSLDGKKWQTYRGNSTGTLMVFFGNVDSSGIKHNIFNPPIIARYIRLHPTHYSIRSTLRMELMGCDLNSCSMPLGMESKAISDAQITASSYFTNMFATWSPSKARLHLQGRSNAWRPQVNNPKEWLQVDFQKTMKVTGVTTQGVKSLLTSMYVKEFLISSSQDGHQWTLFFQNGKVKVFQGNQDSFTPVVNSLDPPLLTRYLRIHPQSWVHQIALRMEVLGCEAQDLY

Columns and labels:
Factor VIII heavy chain [1] = biological target: T1, Factor VIII heavy chain (human, UniProt P00451 20-1667, limits assumed); test: ELISA: Factor VIII heavy chain (50 nM) coated on microtiter wells, biotinylated moAb216 added, detected with peroxidase-conjugated streptavidin, absorbance at 492 nm
T1 construct: only the heavy chain part stood in the assay; also called HCh
Procedure: Microtiter wells were coated with Factor VIII or its subunit (50 nM) in 20 mM Tris, and 0.15 M NaCl, pH 7.4, overnight at 4° C. The wells were washed with PBS containing 0.01% Tween 20 and were blocked with PBS containing 5% HSA for two hours at 37° C. The indicated concentrations of biotinylated-moAb216 were then added in 20 mM HEPES, 0.1 M NaCl, 5 mM CaCl₂, and 0.01% Tween 20, pH 7.2 (HBS-buffer) containing 1% HSA for two hours at 37° C. Bound IgG was quantified by the addition of peroxidase-conjugated streptavidin and O-phenylenediamine dihydrochloride substrate. Reactions were stopped by the addition of 2 M H₂SO₄, and absorbance was measured at 492 nm. The amount of nonspecific binding of anti-mouse peroxidase-conjugated IgG in the absence of moAb216 was <5% of the total signal. Specific binding was recorded after subtracting the nonspecific binding.

Factor VIII heavy chain [2] = biological target: T1, Factor VIII heavy chain; test: ELISA, heavy chain immobilized on microtiter wells, biotinylated moAb216
Factor VIII heavy chain [3] = biological target: T1, Factor VIII heavy chain; test: SPR, moAb216 immobilized on sensor chip

Measured: binding

B1: anti-Factor VIII monoclonal antibody moAb216 (antibody, V domains shown)
VH: EVRLVESGGGLVKPGGSLKLSCAASEFTFSSYSMSWVRQTPEKRLEWVASINSGGRTFYPDSVKGRFTISRDNARNILVLQMSSLRSEDTAMYYCARVIYYDYGAYALDYWGQGTSLTVSS
VL: EIVLTQSPALMAAYPGEKVTITCSVSSSISSSNLHWYQQKSETSPKLWIYGTSNLASGVPVRFSGSGSGTSYSLTISSMEAEDAATYYCQQWNIYPLTFGAGTKLELK
notes: It was biotinylated for the ELISAs and coupled covalently to a CM5 chip for SPR; also called moAb216 IgG; biotinylated moAb216
binds: all assays above
